± gives the standard deviation of the averaged measurements. The list shows a part of the results.
Compound: Nc1nc2c(ncn2[C@@H]2O[C@H](COP(=O)(O)OP(=O)(O)OP(=O)(O)O)[C@@H](O)[C@H]2O)c(=O)[nH]1 [guanosine triphosphate]
Experiment: NP40-soluble protein abundance relative to vehicle (solubility fold change) (ratio); higher = more soluble protein in presence of GTP
In short: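 In three independent experiments, Jurkat crude lysate made by Dounce homogenisation was treated for 10 min at room temperature and then 3 min at 37 °C with eight concentrations ranging from 0.1 to 10 mM. It was then solubilised with 0.8% NP40 plus benzonase for 60 min at 4 °C and ultracentrifuged. The supernatant was TMT-labelled for LC-MS/MS, and each value is the fold change against the detergent-processed vehicle for the same replicate, using vsn-normalised intensities.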

Amino acid sequences for entries named in this document (tags omitted). A change or cut given only in a name is not applied to a line headed by its entry.
UniProt Q15833: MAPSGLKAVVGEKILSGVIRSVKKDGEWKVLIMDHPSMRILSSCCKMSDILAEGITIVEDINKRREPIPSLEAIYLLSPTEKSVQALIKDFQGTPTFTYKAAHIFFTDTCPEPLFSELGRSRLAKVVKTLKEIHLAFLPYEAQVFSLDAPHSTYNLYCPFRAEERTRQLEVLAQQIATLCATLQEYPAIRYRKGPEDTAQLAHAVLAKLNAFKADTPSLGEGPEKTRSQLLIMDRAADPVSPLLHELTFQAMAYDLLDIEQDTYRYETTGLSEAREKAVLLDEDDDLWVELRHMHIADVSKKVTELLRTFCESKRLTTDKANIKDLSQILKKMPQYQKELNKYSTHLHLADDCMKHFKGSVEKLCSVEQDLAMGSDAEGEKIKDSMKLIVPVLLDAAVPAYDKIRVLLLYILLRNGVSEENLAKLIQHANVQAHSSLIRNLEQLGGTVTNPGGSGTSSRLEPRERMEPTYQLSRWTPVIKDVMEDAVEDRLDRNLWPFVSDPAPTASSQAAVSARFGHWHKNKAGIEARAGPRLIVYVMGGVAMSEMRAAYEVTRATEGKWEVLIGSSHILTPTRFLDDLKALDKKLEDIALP
UniProt Q15172: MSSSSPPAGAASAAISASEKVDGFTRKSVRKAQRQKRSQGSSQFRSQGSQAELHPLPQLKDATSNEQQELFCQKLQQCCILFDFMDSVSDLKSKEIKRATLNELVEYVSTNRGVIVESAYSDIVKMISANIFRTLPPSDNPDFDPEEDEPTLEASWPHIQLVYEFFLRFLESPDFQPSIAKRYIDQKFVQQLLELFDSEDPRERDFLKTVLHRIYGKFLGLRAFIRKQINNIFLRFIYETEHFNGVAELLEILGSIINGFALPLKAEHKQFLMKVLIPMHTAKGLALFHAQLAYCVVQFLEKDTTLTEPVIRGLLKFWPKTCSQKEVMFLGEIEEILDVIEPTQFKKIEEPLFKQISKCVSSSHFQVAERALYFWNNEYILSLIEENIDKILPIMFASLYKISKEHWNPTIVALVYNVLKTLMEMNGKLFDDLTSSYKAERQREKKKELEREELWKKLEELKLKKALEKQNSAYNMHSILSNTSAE
UniProt Q9Y5K5, whole entry: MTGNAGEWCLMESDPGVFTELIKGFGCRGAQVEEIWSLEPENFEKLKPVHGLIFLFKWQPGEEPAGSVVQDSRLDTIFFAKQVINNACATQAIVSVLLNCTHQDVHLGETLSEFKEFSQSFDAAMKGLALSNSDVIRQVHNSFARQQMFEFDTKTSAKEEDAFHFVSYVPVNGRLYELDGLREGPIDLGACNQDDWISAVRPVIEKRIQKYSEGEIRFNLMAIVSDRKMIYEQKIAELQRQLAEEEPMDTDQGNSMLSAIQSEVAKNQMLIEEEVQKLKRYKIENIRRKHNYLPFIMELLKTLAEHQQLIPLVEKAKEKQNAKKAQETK
UniProt Q32P28: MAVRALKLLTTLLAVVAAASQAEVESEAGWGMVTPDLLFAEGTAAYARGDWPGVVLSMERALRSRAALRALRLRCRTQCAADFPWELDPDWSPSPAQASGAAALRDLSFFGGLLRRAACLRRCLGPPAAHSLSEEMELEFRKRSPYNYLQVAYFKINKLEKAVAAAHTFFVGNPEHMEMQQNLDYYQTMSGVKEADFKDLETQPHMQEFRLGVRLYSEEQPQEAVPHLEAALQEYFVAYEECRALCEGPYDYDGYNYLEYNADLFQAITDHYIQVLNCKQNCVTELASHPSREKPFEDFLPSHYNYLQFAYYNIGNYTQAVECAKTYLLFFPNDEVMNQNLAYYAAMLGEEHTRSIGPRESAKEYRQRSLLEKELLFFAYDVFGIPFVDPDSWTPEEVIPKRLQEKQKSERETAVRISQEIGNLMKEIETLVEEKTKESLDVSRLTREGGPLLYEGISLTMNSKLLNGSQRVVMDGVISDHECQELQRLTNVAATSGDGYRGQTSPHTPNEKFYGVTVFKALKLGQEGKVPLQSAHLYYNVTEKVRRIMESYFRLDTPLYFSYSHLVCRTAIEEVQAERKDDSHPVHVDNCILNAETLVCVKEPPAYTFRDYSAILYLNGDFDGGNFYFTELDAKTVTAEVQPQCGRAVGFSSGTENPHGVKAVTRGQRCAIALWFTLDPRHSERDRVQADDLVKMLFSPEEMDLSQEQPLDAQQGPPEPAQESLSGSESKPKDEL
UniProt Q14974, whole entry: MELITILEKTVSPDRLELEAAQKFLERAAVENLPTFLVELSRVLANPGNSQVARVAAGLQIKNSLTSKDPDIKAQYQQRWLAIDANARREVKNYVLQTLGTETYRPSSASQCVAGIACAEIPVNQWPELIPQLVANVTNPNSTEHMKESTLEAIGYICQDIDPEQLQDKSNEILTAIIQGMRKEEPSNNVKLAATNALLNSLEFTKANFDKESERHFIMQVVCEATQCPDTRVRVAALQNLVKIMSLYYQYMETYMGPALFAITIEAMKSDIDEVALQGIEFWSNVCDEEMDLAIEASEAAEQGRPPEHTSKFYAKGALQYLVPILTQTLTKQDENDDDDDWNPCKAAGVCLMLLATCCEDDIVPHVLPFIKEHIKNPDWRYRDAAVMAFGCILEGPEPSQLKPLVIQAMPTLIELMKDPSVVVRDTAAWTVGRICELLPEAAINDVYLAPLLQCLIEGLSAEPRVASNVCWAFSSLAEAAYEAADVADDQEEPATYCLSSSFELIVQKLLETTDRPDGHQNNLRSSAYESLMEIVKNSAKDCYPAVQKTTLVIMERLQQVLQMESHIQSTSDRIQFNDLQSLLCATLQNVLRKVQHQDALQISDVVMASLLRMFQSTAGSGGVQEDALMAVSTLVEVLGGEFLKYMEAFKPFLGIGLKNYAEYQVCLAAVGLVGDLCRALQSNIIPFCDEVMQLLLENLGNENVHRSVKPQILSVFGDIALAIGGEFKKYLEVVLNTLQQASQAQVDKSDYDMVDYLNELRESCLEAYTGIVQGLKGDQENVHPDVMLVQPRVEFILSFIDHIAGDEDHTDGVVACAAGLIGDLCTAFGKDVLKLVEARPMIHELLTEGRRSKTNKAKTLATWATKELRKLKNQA
UniProt Q15046, whole entry, looked up: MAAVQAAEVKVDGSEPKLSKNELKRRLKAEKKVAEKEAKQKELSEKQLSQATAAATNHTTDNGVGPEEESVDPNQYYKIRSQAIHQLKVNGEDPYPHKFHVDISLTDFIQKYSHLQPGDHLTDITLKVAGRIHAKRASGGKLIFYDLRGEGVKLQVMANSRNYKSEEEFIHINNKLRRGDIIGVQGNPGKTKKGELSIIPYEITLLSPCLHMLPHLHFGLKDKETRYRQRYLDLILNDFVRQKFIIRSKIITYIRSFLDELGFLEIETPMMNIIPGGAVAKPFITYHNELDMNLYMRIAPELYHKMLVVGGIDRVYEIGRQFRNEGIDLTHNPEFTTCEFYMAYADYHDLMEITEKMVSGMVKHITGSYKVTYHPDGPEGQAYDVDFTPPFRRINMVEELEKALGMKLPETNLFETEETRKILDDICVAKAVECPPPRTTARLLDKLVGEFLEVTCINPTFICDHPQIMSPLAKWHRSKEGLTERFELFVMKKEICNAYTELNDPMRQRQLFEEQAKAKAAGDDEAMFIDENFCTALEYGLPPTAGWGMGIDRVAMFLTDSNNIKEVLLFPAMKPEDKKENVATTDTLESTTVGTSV
UniProt Q2NKX8: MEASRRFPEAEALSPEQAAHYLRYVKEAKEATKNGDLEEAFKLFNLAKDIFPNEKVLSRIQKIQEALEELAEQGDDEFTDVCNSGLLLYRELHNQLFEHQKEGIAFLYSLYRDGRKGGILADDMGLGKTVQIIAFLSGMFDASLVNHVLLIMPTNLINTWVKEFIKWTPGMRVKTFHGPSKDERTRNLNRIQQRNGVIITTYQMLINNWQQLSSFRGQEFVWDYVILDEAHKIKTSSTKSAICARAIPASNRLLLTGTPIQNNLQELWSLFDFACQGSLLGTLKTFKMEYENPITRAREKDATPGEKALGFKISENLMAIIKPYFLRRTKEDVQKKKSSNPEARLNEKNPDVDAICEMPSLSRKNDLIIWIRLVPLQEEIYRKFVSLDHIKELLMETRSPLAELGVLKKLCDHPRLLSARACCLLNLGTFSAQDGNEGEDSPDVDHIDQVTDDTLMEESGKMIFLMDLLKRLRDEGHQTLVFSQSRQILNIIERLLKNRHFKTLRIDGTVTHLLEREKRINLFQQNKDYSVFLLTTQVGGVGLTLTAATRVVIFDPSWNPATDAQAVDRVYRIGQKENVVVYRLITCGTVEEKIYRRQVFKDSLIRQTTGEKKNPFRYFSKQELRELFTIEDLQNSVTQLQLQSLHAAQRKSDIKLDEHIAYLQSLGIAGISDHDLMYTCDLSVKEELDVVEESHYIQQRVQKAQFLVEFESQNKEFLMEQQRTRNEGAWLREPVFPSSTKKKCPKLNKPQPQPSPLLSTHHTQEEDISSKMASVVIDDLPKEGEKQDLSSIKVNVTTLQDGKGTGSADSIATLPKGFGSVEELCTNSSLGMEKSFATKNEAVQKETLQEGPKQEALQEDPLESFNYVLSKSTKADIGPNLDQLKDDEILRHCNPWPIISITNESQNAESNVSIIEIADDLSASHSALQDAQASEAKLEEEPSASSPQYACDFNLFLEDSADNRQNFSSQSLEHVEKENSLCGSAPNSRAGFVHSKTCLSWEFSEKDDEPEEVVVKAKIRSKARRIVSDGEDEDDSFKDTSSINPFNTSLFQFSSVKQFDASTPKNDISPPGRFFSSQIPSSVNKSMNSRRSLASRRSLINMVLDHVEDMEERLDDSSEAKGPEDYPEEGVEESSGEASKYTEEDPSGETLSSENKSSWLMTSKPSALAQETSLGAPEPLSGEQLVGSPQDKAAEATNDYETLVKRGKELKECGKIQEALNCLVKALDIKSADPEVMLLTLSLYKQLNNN
UniProt Q15020: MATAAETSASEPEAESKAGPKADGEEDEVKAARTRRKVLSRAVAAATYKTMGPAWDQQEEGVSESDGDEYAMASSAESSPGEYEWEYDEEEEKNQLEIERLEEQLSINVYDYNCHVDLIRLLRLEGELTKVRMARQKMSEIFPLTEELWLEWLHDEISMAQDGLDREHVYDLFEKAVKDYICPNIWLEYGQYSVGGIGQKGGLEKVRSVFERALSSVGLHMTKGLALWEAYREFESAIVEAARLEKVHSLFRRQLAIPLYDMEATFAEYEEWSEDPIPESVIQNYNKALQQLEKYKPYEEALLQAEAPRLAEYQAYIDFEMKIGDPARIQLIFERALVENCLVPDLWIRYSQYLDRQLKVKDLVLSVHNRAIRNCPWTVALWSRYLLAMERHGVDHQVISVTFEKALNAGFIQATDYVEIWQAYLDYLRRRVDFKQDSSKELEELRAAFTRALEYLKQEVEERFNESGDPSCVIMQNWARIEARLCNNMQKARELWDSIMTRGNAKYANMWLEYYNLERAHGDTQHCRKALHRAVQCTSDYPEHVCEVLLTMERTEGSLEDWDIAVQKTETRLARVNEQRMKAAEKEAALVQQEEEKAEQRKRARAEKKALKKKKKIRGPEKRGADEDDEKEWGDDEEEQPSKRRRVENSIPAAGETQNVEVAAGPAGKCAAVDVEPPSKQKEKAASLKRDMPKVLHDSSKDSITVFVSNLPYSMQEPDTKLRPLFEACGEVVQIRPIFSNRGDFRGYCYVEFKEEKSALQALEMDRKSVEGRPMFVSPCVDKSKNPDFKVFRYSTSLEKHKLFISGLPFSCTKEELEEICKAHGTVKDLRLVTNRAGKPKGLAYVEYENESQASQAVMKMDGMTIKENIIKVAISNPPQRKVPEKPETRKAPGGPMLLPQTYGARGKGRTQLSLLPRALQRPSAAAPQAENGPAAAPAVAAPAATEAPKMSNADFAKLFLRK
UniProt Q3SXY8: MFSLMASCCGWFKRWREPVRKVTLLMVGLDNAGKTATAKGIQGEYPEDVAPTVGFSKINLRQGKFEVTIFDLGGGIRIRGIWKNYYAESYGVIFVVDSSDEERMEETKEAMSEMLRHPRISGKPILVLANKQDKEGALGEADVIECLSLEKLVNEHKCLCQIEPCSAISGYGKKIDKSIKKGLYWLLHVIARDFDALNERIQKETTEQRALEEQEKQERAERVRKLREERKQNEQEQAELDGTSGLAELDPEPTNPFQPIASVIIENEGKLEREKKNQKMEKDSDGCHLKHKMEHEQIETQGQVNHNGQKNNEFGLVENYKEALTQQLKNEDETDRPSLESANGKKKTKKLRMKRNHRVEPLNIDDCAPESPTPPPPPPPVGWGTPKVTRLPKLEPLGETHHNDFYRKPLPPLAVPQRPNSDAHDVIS
UniProt Q15773: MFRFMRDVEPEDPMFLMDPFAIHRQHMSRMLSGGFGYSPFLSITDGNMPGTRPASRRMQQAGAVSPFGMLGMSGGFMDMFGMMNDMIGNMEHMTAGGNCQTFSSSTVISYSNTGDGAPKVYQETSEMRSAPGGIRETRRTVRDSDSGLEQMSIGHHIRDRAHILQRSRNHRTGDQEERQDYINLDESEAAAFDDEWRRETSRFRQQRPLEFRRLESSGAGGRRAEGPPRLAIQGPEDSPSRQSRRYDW

Target	NP40-soluble protein abundance (concentration: 0.1mM)	NP40-soluble protein abundance (concentration: 0.5mM)	NP40-soluble protein abundance (concentration: 1mM)	NP40-soluble protein abundance (concentration: 2mM)	NP40-soluble protein abundance (concentration: 4mM)	NP40-soluble protein abundance (concentration: 6mM)	NP40-soluble protein abundance (concentration: 8mM)	NP40-soluble protein abundance (concentration: 10mM)
CDCA8 (UniProt Q53HL2)	1.03 ± 0.14	0.969 ± 0.047	1.06 ± 0.17	1.19 ± 0.23	1.17 ± 0.2	1.22 ± 0.23	1.19 ± 0.064	1.53 ± 0.22
UniProt Q15833 and related entries	1 ± 0.034	0.988 ± 0.0093	0.943 ± 0.032	0.948 ± 0.044	0.923 ± 0.059	0.924 ± 0.06	0.906 ± 0.038	0.914 ± 0.061
PPP2R5A (UniProt Q15172)	1.04 ± 0.063	0.993 ± 0.046	0.939 ± 0.011	0.9 ± 0.033	0.877 ± 0.048	0.864 ± 0.04	0.862 ± 0.097	0.848 ± 0.055
NDUFA9 (UniProt Q16795)	1.09 ± 0.09	1.11 ± 0.15	1.06 ± 0.14	1.14 ± 0.25	1.17 ± 0.21	1.11 ± 0.22	1.07 ± 0.16	1.06 ± 0.15
UniProt Q16864 and related entries	0.906 ± 0.02	0.931 ± 0.05	1.032 ± 0.01	1.04 ± 0.067	0.999 ± 0.061	1.02 ± 0.034	0.992 ± 0.073	1.02 ± 0.027
Q5LJA5 and related entries (UniProt Q9Y5K5)	0.963 ± 0.056	0.96 ± 0.034	0.938 ± 0.049	0.946 ± 0.026	0.939 ± 0.034	0.927 ± 0.023	0.921 ± 0.043	0.938 ± 0.035
TAF9 (UniProt Q16594)	1.06 ± 0.11	0.991 ± 0.044	1.086 ± 0.0081	1.12 ± 0.018	1.1 ± 0.086	1.14 ± 0.073	1.24 ± 0.077	1.29 ± 0.033
UniProt Q14CX7 and related entries	1.09 ± 0.065	1.1 ± 0.086	1 ± 0.073	1.03 ± 0.091	0.984 ± 0.1	0.957 ± 0.041	0.958 ± 0.1	0.895 ± 0.15
KIF22 (UniProt Q14807)	1.1 ± 0.038	1.12 ± 0.064	1.13 ± 0.038	1.11 ± 0.058	1.17 ± 0.085	1.21 ± 0.076	1.21 ± 0.1	1.19 ± 0.12
NCAPH (UniProt Q15003)	0.967 ± 0.021	1.02 ± 0.028	0.991 ± 0.015	1.01 ± 0.037	0.983 ± 0.041	1.02 ± 0.052	1.01 ± 0.084	1.01 ± 0.069
UniProt Q32P28 and related entries	1.01 ± 0.022	1.09 ± 0.025	1.09 ± 0.036	1.14 ± 0.053	1.2 ± 0.04	1.15 ± 0.013	1.21 ± 0.033	1.21 ± 0.032
KPNB1 (UniProt Q14974)	0.986 ± 0.053	0.988 ± 0.03	1.01 ± 0.035	0.989 ± 0.037	1.01 ± 0.041	0.993 ± 0.033	1 ± 0.033	0.992 ± 0.028
SMAD1 (UniProt Q15797)	1.07 ± 0.037	0.9103 ± 0.0054	0.923 ± 0.11	0.94 ± 0.069	0.978 ± 0.054	1.01 ± 0.17	0.992 ± 0.032	0.867 ± 0.098
UniProt Q15046	1.02 ± 0.054	1.11 ± 0.11	1.07 ± 0.14	1.15 ± 0.19	1.16 ± 0.2	1.2 ± 0.24	1.17 ± 0.21	1.11 ± 0.22
UniProt Q52LJ0-2	0.8879 ± 0.0058	0.868 ± 0.042	0.937 ± 0.023	0.947 ± 0.027	0.948 ± 0.02	0.988 ± 0.023	0.944 ± 0.05	0.972 ± 0.042
ERCC6L (UniProt Q2NKX8)	0.994 ± 0.039	1.01 ± 0.062	0.961 ± 0.045	0.95 ± 0.062	0.93 ± 0.04	0.944 ± 0.053	0.931 ± 0.038	0.944 ± 0.038
UniProt Q15020 and related entries	1 ± 0.03	1.04 ± 0.025	0.994 ± 0.018	0.994 ± 0.034	0.99 ± 0.035	1 ± 0.038	1.03 ± 0.078	0.99 ± 0.044
UniProt Q3SXY8 and related entries	1.11 ± 0.063	1.07 ± 0.1	1.16 ± 0.11	1.11 ± 0.16	1.09 ± 0.19	1.1 ± 0.16	1.19 ± 0.094	1.19 ± 0.13
UniProt Q15438 and related entries	1.03 ± 0.066	1.02 ± 0.047	0.973 ± 0.073	0.975 ± 0.035	0.972 ± 0.053	0.969 ± 0.039	0.946 ± 0.073	0.924 ± 0.092
UniProt Q15032-2	1.05 ± 0.12	0.952 ± 0.083	1.05 ± 0.072	1.02 ± 0.13	1.09 ± 0.096	0.978 ± 0.12	1.1401 ± 0.00067	1.02 ± 0.078
CRTC2 (UniProt Q53ET0)	1.06 ± 0.14	1.04 ± 0.15	1.11 ± 0.08	1.103 ± 0.0038	1.03 ± 0.098	1.02 ± 0.12	1.12 ± 0.097	1.15 ± 0.24
Q5JWT2 and related entries (UniProt Q9ULK4)	1.1 ± 0.068	1.18 ± 0.073	1.08 ± 0.061	1.17 ± 0.13	1.13 ± 0.12	1.11 ± 0.073	1.11 ± 0.039	1.07 ± 0.092
Q5T3Q7 and related entries (UniProt Q9H583)	1.01 ± 0.039	1.04 ± 0.061	0.991 ± 0.065	1.1 ± 0.076	1.23 ± 0.099	1.28 ± 0.13	1.26 ± 0.12	1.38 ± 0.043
UniProt Q2T9J0 and related entries	0.835 ± 0.15	0.843 ± 0.17	0.867 ± 0.035	0.981 ± 0.26	0.914 ± 0.17	0.8195 ± 0.008	0.783 ± 0.032	0.903 ± 0.11
TRADD (UniProt Q15628)	1.03 ± 0.029	1.13 ± 0.1	1.06 ± 0.081	1.1 ± 0.071	1.01 ± 0.069	1.03 ± 0.081	0.956 ± 0.073	0.972 ± 0.09
MLF2 (UniProt Q15773)	1.03 ± 0.023	0.953 ± 0.067	0.93 ± 0.012	0.921 ± 0.076	0.9106 ± 0.0037	0.917 ± 0.059	0.852 ± 0.012	0.828 ± 0.029
UniProt Q49A26 and related entries	1.044 ± 0.0023	1.06 ± 0.036	1.15 ± 0.03	1.27 ± 0.028	1.52 ± 0.16	1.72 ± 0.026	1.97 ± 0.078	2.27 ± 0.094
UniProt Q5T5C0 and related entries	0.984 ± 0.015	1.08 ± 0.016	1 ± 0.1	0.966 ± 0.056	0.962 ± 0.0053	0.977 ± 0.12	1.03 ± 0.088	1 ± 0.033
FKBP15 (UniProt Q5T1M5)	0.995 ± 0.078	0.997 ± 0.061	1.02 ± 0.035	0.975 ± 0.049	0.99 ± 0.062	0.983 ± 0.049	1.04 ± 0.071	0.995 ± 0.06
UniProt Q16513 and related entries	1.05 ± 0.039	1.013 ± 0.0083	0.96 ± 0.071	0.942 ± 0.046	0.936 ± 0.07	0.949 ± 0.07	0.96 ± 0.029	0.903 ± 0.096

Rewritten bar-delimited: part of the list above
Target | NP40-soluble protein abundance (concentration: 0.1mM) | NP40-soluble protein abundance (concentration: 0.5mM) | NP40-soluble protein abundance (concentration: 1mM) | NP40-soluble protein abundance (concentration: 2mM) | NP40-soluble protein abundance (concentration: 4mM) | NP40-soluble protein abundance (concentration: 6mM) | NP40-soluble protein abundance (concentration: 8mM) | NP40-soluble protein abundance (concentration: 10mM)
CDCA8 (UniProt Q53HL2) | 1.03 ± 0.14 | 0.969 ± 0.047 | 1.06 ± 0.17 | 1.19 ± 0.23 | 1.17 ± 0.2 | 1.22 ± 0.23 | 1.19 ± 0.064 | 1.53 ± 0.22
TAF9 (UniProt Q16594) | 1.06 ± 0.11 | 0.991 ± 0.044 | 1.086 ± 0.0081 | 1.12 ± 0.018 | 1.1 ± 0.086 | 1.14 ± 0.073 | 1.24 ± 0.077 | 1.29 ± 0.033
UniProt Q14CX7 and related entries | 1.09 ± 0.065 | 1.1 ± 0.086 | 1 ± 0.073 | 1.03 ± 0.091 | 0.984 ± 0.1 | 0.957 ± 0.041 | 0.958 ± 0.1 | 0.895 ± 0.15
Q5JWT2 and related entries (UniProt Q9ULK4) | 1.1 ± 0.068 | 1.18 ± 0.073 | 1.08 ± 0.061 | 1.17 ± 0.13 | 1.13 ± 0.12 | 1.11 ± 0.073 | 1.11 ± 0.039 | 1.07 ± 0.092
TRADD (UniProt Q15628) | 1.03 ± 0.029 | 1.13 ± 0.1 | 1.06 ± 0.081 | 1.1 ± 0.071 | 1.01 ± 0.069 | 1.03 ± 0.081 | 0.956 ± 0.073 | 0.972 ± 0.09
UniProt Q49A26 and related entries | 1.044 ± 0.0023 | 1.06 ± 0.036 | 1.15 ± 0.03 | 1.27 ± 0.028 | 1.52 ± 0.16 | 1.72 ± 0.026 | 1.97 ± 0.078 | 2.27 ± 0.094
FKBP15 (UniProt Q5T1M5) | 0.995 ± 0.078 | 0.997 ± 0.061 | 1.02 ± 0.035 | 0.975 ± 0.049 | 0.99 ± 0.062 | 0.983 ± 0.049 | 1.04 ± 0.071 | 0.995 ± 0.06
